# The campaign covered roughly 340,000 compounds. About 170 (0.05%) were called active. This list was built around the results that the source calls inconclusive (neither active nor inactive); the mix of calls is not that of the screen. Calls come from the whole dose curve; as a rule, active = well fitted inhibition curve with a large enough effect in the signal ratio, with a control signal flat (not every such curve was filed as active); inconclusive = small, poorly fitted or top-dose-only effect, or effect the other way, or a change in a side signal; inactive = flat fitted curve, though single readings scatter; the % refers to the signal ratio. Where the call is inconclusive, the potency comes from a doubtful curve fit.
# Experiment: qHTS Assay to Find Inhibitors of Chronic Active B-Cell Receptor Signaling;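 for activity change, negative = inhibition: plate controls were basal doxycycline-induced cells for no effect and cells given 10 µM MG132 for full effect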
# Conditions: ABC-DLBCL IkBa-CBG/CBR reporter, luminescence ratio (green luciferase fused to IkBa over red control in TMD8 lymphoma cells), 4 h; activity change, negative = inhibition: at 46.1 µM (top of the series)
# Outline: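 Compounds up to 46 uM were incubated four hours with TMD8 cells whose green CBG68 luciferase is fused to IkappaBalpha; red CBR luminescence normalised the signal, and concentration-effect curves were fitted to fusion, red and ratio data.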
# Potency is the fitted concentration of half-maximal effect.
SMILES,"activity change, negative = inhibition",Potency
CCN(CC)CCCNC(=O)c1ccc2c(c1)NC(=O)C(CS(=O)(=O)Cc1cccc(Br)c1)N2 (stereo not given),inactive: -10.5%,–
CC(C)CN(CCCNC(=O)CN1C(=O)COc2ccc(S(=O)(=O)N3CCOCC3)cc21)CC(C)C,inconclusive: 1.28%,–
CC[C@@]1(C(=O)OC)N[C@H](CN(C)C(=O)COC)[C@@H]2C(=O)N(Cc3ccccc3)C(=O)[C@@H]21,inactive: -0.152%,–
CC(=O)c1ccc(NC(=O)c2cnn3ccccc23)cc1,–,"inconclusive: 29.1 µM [falling, single point]"
Clc1cccc(-c2nnc(-c3ccno3)o2)c1,inconclusive: 1.01%,–
FC(F)(F)c1nnc2ccc(Cl)nn12,inconclusive: -11.5%,–
Cc1cnc(NC(=O)c2cccc(S(=O)(=O)N3CC(C)OC(C)C3)c2)s1 (stereo not given),inactive: -0.536%,–
Cc1c(O)c(CN2CCCC2)cc2c3c(c(=O)oc12)CCC3,inconclusive: -1.42%,–
Cc1cc(C)n(-c2nc3ccccc3c(=O)n2OCC#N)n1,–,"inconclusive: 22.4 µM [cytotoxic, partial curve]"
COc1ccc(OC)c(/C=C/C(=O)OCC(=O)NCc2cccs2)c1,inactive: -0.0051%,–
Cc1ccc(/C=N/NC(=O)C2=NNC(c3ccccc3)(c3ccccc3)C2)c(O)c1,–,"inconclusive: 20.6 µM [falling, single point]"
N#Cc1c2c(c(Nc3ccccc3)n3c1nc1ccccc13)CCC2,inactive: -0.0816%,–
COc1ccc(/C=C/C(=O)NC2CCCCCCC2)cc1S(=O)(=O)N1CCOCC1,inconclusive: 1.7%,–
CC(C)CNC(=O)C(=O)Nc1ccc(N(C)C)cc1,–,"inconclusive: 11.6 µM [falling, partial curve, poor fit]"
COc1cc(O)cc2occ(-c3ccc(O)cc3)c(=O)c12,–,"inconclusive: 12.6 µM [falling, partial curve]"
Cc1ccc(N2NC(=O)/C(=C/c3ccc(-c4ccc(Cl)c(C(=O)O)c4)o3)C2=O)cc1,inconclusive: -1.57%,–
NNC(=O)c1ccc(NS(=O)(=O)c2ccc(Br)cc2)cc1,–,"inconclusive: 15.8 µM [falling, partial curve]"
O=S(=O)(c1ccccc1)c1nc(-c2ccco2)oc1N1CCCCC1,inactive: 4.83%,–
COc1ccc2[nH]c(=O)c(CN(C(=O)C(C)C)c3ccccc3OC)cc2c1,inactive: -9.28%,–
O=C(Nc1cccc2cccnc12)c1ccc(Br)o1,inconclusive: 2.22%,–

# Filtered by structure: the compounds so far with a Cl atom
SMILES,"activity change, negative = inhibition",Potency
Clc1cccc(-c2nnc(-c3ccno3)o2)c1,inconclusive: 1.01%,–
FC(F)(F)c1nnc2ccc(Cl)nn12,inconclusive: -11.5%,–
Cc1ccc(N2NC(=O)/C(=C/c3ccc(-c4ccc(Cl)c(C(=O)O)c4)o3)C2=O)cc1,inconclusive: -1.57%,–

# More results.

SMILES,"activity change, negative = inhibition",Potency
CC(=O)Nc1cccc(S(=O)(=O)N2CCCCCC2)c1,inactive: -9.22%,–
O=C(NCCOc1ccc(F)cc1)c1ccccc1SCc1ccccc1,inconclusive: 0.491%,–
COc1ccc(C(C)n2c(C)c3c(C)nnc(C)c3c2C)cc1 (stereo not given),–,"inconclusive: 12.6 µM [rising, partial curve, poor fit]"
Cc1ccc2nc(Nc3ccc(Cl)cc3)c3nncn3c2c1,inconclusive: 9.39%,–
CC(C)Cc1nnc(NC(=O)c2ccc([N+](=O)[O-])cc2)s1,–,"inconclusive: 20 µM [falling, partial curve]"
O=C(c1nn2c(C(F)(F)F)cc(-c3ccccc3)nc2c1Cl)N1CCN2CCCC2C1 (stereo not given),inactive: -0.977%,–
Cc1nn(-c2ccccc2)c2sc(C(=O)n3cccn3)cc12,inconclusive: -4.01%,–
C[C@H](CCC(=O)NCC(=O)O)[C@H]1CC[C@H]2[C@@H]3[C@H](O)C[C@@H]4C[C@H](O)CC[C@]4(C)[C@H]3C[C@H](O)[C@]12C,inactive,–
C=CCOC(=O)c1cn(CC)c2nc(C)ccc2c1=O,inconclusive: 18.3%,–
O=C(Nc1nc2ccccc2s1)C1=NN(c2ccccc2)C(=O)CC1,–,"inconclusive: 9.2 µM [falling, partial curve]"
CCSc1nc2c([nH]c3ccccc32)c(=O)n1C,inconclusive: 3.21%,–
COc1ccc(N2CCN(C(=O)c3cc(C4CC4)nn3-c3ccccc3)CC2)cc1,inconclusive: -0.668%,–
CCOc1ccc(C(=O)Nc2ccccc2N2CCOCC2)cc1,inconclusive: 14.5%,–
Cc1ccc(NC(=O)CN(C)Cc2ccc(Cl)cc2)cc1,–,"inconclusive: 1.58 µM [falling, partial curve, poor fit]"
CCc1nc2c(c(=O)c3ccccc3n2C)c(=O)n1CCc1ccc(OC)cc1,–,"inconclusive: 4.11 µM [falling, full curve]"
Cc1nc(NC(=O)COc2ccccc2)sc1C(=O)Nc1cccc(Cl)c1,–,"inconclusive: 11.2 µM [falling, partial curve, poor fit]"
O=C(CCN1CCc2ccccc2C1)Nc1ccccc1,inconclusive: -14.4%,–
CCOc1ccccc1NC(=O)c1ccc(S(=O)(=O)N(C)C)cc1,inconclusive: -14.2%,–
Cc1cc(NC(=O)c2ccccc2F)n(-c2nc3ccccc3[nH]2)n1,inactive: 6.43%,–
CN1CCN(c2ccccc2/C=C2/C(=O)Nc3ccccc32)CC1,inconclusive: -17.4%,–
